PubChem BioAssay AID652272 | Drosophila RNAi Screening Center | 2013
The deposit covers about 21,000 reagents; below is an unselected part of those with a known target gene and a result. In the full data, 503 (2.4%) are marked active. 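Raw plate light values, not normalised; calls rest on replicate z-scores that were not deposited; hits include reporter decreases as well as increases.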 The numbers tell different reagents against one gene apart. The record does not give: the amount of reagent, the time to read-out.

- Screen: 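Genes whose knock-down decreases or increases Hedgehog reporter output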 (primary screen)
- Cells: Drosophila clone 8 (Cl8) cells
- Knock-down reagent: long dsRNA against Drosophila genes
- Measured: 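Firefly light from a Hedgehog-responsive ptc promoter reporter and Renilla reference light, both read on a plate reader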
- Direction: firefly Hh reporter signal: higher = more ptc reporter light; Renilla reference signal: higher = more Renilla control light
- Rule for the call: 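Called a hit if the two-replicate mean z-score lies below -2 or above +3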
- Meaning of the calls: active = hit: reporter lowered or raised; inactive = not a hit

no.	gene	reagent	firefly Hh reporter signal, replicate 1	firefly Hh reporter signal, replicate 2	firefly Hh reporter signal, replicate 3	Renilla reference signal, replicate 1	Renilla reference signal, replicate 2	Outcome
1	Os-C	1	1.04e5	1.91e5		3888	10281	inactive
2	NimA	1	1.63e5	2.12e5		3376	8256	inactive
3	GAA1	1	1.02e5	80133		2358	1856	inactive
4	CG10462	1	67869	34192		2525	1920	inactive
5	CG3223	1	89568	1.15e5		3584	3411	inactive
6	CG6688	1	5.01e5	80993		28871	2713	inactive
7	5PtaseI	1	87568	1.16e5		3525	4164	inactive
8	CG7884	1	55946	1.68e5		1509	7773	inactive
9	CG15480	1	2.12e5	84907		4713	6925	inactive
10	Ugt35C1	1	89610	1.23e5		2535	3545	inactive
11	CG7255	1	84039	62940		3440	2848	inactive
12	otk	1	96537	49715		2429	4048	inactive
13	Syb	1	77434	52864		2864	2181	inactive
14	CG16986	1	99339	50464		2819	3925	inactive
15	qkr58E-2	1	72306	48784		1080	4374	inactive
16	CG15803	1	6.02e5	85219		36554	2087	inactive
17	CG4658	1	65509	41289		1504	3547	inactive
18	Vta1	1	1.30e5	4.86e5	72661	4423	26228	inactive
19	CG7196 (retired record)	1	5.08e5	2.35e5		27360	10389	inactive
20	CG7196 (retired record)	2	75675	40691		2004	3200	inactive
21	CG2887	1	71552	1.56e5		2077	6153	inactive
22	O-fut2	1	72669	84813		1952	2342	inactive
23	CG32625	1	6.98e5	1.66e5		39216	3613	inactive
24	Myd88	1	63172	48976		2865	2228	inactive
25	Idgf6	1	1.16e5	80509		4785	3676	inactive
26	DENR	1	85963	76057		2156	2018	inactive
27	Kaz-m1	1	5.26e5	1.19e5		26960	3760	inactive
28	CG16863	1	87657	39922		2519	4327	inactive
29	M1BP	1	90902	63320		4742	3012	inactive
30	CG10205	1	73120	31153		1745	2728	inactive
31	prg	1	1.13e5	52875		1624	4098	active

Part of the list above, set out differently:
qkr58E-2
- firefly Hh reporter signal, replicate 1: 72306
- firefly Hh reporter signal, replicate 2: 48784
- Renilla reference signal, replicate 1: 1080
- Renilla reference signal, replicate 2: 4374
- Outcome: inactive

CG15803
- firefly Hh reporter signal, replicate 1: 6.02e5
- firefly Hh reporter signal, replicate 2: 85219
- Renilla reference signal, replicate 1: 36554
- Renilla reference signal, replicate 2: 2087
- Outcome: inactive

CG4658
- firefly Hh reporter signal, replicate 1: 65509
- firefly Hh reporter signal, replicate 2: 41289
- Renilla reference signal, replicate 1: 1504
- Renilla reference signal, replicate 2: 3547
- Outcome: inactive

Vta1
- firefly Hh reporter signal, replicate 1: 1.30e5
- firefly Hh reporter signal, replicate 2: 4.86e5
- firefly Hh reporter signal, replicate 3: 72661
- Renilla reference signal, replicate 1: 4423
- Renilla reference signal, replicate 2: 26228
- Outcome: inactive

CG7196 (retired record) #1
- firefly Hh reporter signal, replicate 1: 5.08e5
- firefly Hh reporter signal, replicate 2: 2.35e5
- Renilla reference signal, replicate 1: 27360
- Renilla reference signal, replicate 2: 10389
- Outcome: inactive

CG7196 (retired record) #2
- firefly Hh reporter signal, replicate 1: 75675
- firefly Hh reporter signal, replicate 2: 40691
- Renilla reference signal, replicate 1: 2004
- Renilla reference signal, replicate 2: 3200
- Outcome: inactive

CG2887
- firefly Hh reporter signal, replicate 1: 71552
- firefly Hh reporter signal, replicate 2: 1.56e5
- Renilla reference signal, replicate 1: 2077
- Renilla reference signal, replicate 2: 6153
- Outcome: inactive

O-fut2
- firefly Hh reporter signal, replicate 1: 72669
- firefly Hh reporter signal, replicate 2: 84813
- Renilla reference signal, replicate 1: 1952
- Renilla reference signal, replicate 2: 2342
- Outcome: inactive

CG32625
- firefly Hh reporter signal, replicate 1: 6.98e5
- firefly Hh reporter signal, replicate 2: 1.66e5
- Renilla reference signal, replicate 1: 39216
- Renilla reference signal, replicate 2: 3613
- Outcome: inactive

More reagents:
no.	gene	reagent	firefly Hh reporter signal, replicate 1	firefly Hh reporter signal, replicate 2	firefly Hh reporter signal, replicate 3	Renilla reference signal, replicate 1	Renilla reference signal, replicate 2	Outcome
32	sim	1	69736	73261		2218	2099	inactive
33	msd5	1	50432	31938		2296	2404	inactive
34	Eph	1	76838	2.69e5		1674	9028	inactive
35	mAChR-C	1	75127	3.56e5		2619	11786	inactive
36	CG15145	1	1.22e5	48881		3373	4131	inactive
37	brwl	1	3.50e5	54642		16928	2484	inactive
38	brwl	2	82583	57479		3677	2908	inactive
39	CG16798	1	1.02e5	53842		2848	5257	inactive
40	SKIP	1	8.91e5	1.66e5		43580	3140	inactive
41	SKIP	2	6.48e5	1.59e5		32170	3030	inactive
42	SKIP	3	4.86e5	1.58e5		23964	3226	inactive
43	SKIP	4	1.65e5	7.89e5	1.12e5	6557	44124	inactive
44	SKIP	5	8.86e5	8.93e5	1.77e5	39803	6049	inactive
45	GstE14	1	1.03e5	56201		3137	4839	inactive
46	Sas10	1	69187	3.34e5		1724	13645	inactive
47	Scamp	1	68217	1.75e5		1975	7107	inactive
48	CG31233	1	7.79e5	1.58e5		35717	2928	inactive
49	CG5961	1	1.74e5	1.51e5		7337	5788	inactive
50	CG5002	1	1.30e5	72762		5109	3078	inactive
51	TTLL12	1	94352	68261		2608	4667	inactive
52	DopEcR	1	1.05e5	50657		4371	2040	inactive
53	CG8929	1	1.78e5	1.06e5		7123	4859	inactive
54	Eglp1	1	1.29e5	83464		4896	3368	inactive
55	CG14207	1	1.23e5	1.19e5		2736	3364	inactive
56	CG14207	2	80843	2.39e5		3096	10553	inactive
57	CG33090	1	58192	67321		2548	2482	inactive
